# At least one structure is not confirmed: it was looked up by name or label, or the drawing left a doubt.
# System: Male albino mice
# Assay: In-vivo hypolipidemic assay, hyperlipidemia induced by tyloxapol (Triton WR-1339)
# Settings: H 200, M 100, L 50 μmole/kg; simvastatin 80 mg/kg
smiles,measurement,value
CCC(C)(C)C(=O)O[C@H]1C[C@@H](C)C=C2C=C[C@H](C)[C@H](CC[C@@H]3C[C@@H](O)CC(=O)O3)[C@H]21 [simvastatin],order of HDL-C boosting effect,imlip SPC/EPG (L)>imlip SPC/EPG (H)>imlip SPC/EPG (M)>imlip HSPC/DSPG (L)>imlip HSPC/DSPG (H)>simvastatin>imlip HSPC/DSPG (M)
same,order of efficacy on atherogenic index AI1 (LDL-C/HDL-C),imlip HSPC/DSPG (L)>imlip SPC/EPG (L)>simvastatin>imlip SPC/EPG (H)>imlip HSPC/DSPG (H)>imlip SPC/EPG (M)>imlip HSPC/DSPG (M)
same,order of efficacy on atherogenic index AI2 (log (triglycerides/HDL-C)),imlip HSPC/DSPG (L)>imlip SPC/EPG (L)>imlip HSPC/DSPG (H)>imlip SPC/EPG (H)>simvastatin>imlip SPC/EPG (M)>imlip HSPC/DSPG (M)
same,order of magnitude of effects on serum LDL-C,imlip HSPC/DSPG (L)>imlip HSPC/DSPG (M) imlip HSPC/DSPG (H)>simvastatin>SPC/EPG (L)>SPC/EPG (H)>SPC/EPG (M)
same,order of magnitude of effects on serum total cholesterol,imlip HSPC/DSPG (M)>simvastatin>imlip HSPC/DSPG (H)>imlip HSPC/DSPG (L)>imlip SPC/EPG (L)>imlip SPC/EPG (H)>imlip SPC/EPG (M)
same,order of reduction of serum triglycerides,imlip HSPC/DSPG (M)>imlip HSPC/DSPG (L)>imlip HSPC/DSPG (H)>imlip SPC/EPG (L)>simvastatin>imlip SPC/SPG (H)>imlip SPC/EPG (M)

# Reference: patent US9987375B2, “Method and composition for treatment of dyslipidemia and other diseases” (priority 2013, dated 2018)
